{"source": "PubChem BioAssay AID686943 – Drosophila RNAi Screening Center – 2013", "assay": "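Search across the genome for regulators of signalling from receptor tyrosine kinase to ERK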 (primary screen)", "cell system": "Drosophila S2R+ haemocyte-like cells expressing YFP-tagged ERK (Rolled)", "reagent": "long dsRNA against Drosophila genes", "challenge": "insulin stimulation versus unstimulated cells; dose and duration not given", "detection": "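Per-plate z-scores of phospho-ERK immunostaining normalised to YFP-tagged ERK, measured with and without insulin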", "direction": "replicate 1, z-score of dpERK with insulin: higher = more active ERK per ERK-YFP after insulin", "note": "The deposit covers about 23,000 reagents; shown is an unselected part of those with a known target gene and a result. 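Extra replicates exist only for a retested subset of genes; insulin dose and duration not given; both raised and lowered dpERK matter.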 Not all columns of the deposit are shown. No sequences are given here. The record does not give: the amount of reagent, the time to read-out."}
{"gene knocked down":"Mlp60A (GeneID 37853)","amplicon":"DRSC04623","replicate 1, z-score of dpERK with insulin":-0.58}
{"gene knocked down":"Mlp60A (GeneID 37853)","amplicon":"DRSC22233","replicate 1, z-score of dpERK with insulin":-0.16}
{"gene knocked down":"Mlp60A (GeneID 37853)","amplicon":"DRSC22481","replicate 1, z-score of dpERK with insulin":0.27}
{"gene knocked down":"ND-30 (GeneID 38378)","amplicon":"DRSC08243","replicate 1, z-score of dpERK with insulin":-0.23}
{"gene knocked down":"CG13192 (GeneID 36259)","amplicon":"DRSC06317","replicate 1, z-score of dpERK with insulin":0.42}
{"gene knocked down":"ng1 (GeneID 31300)","amplicon":"DRSC18802","replicate 1, z-score of dpERK with insulin":0.11}
{"gene knocked down":"Lmx1a (GeneID 39406)","amplicon":"DRSC09726","replicate 1, z-score of dpERK with insulin":0.18}
{"gene knocked down":"Lmx1a (GeneID 39406)","amplicon":"DRSC10275","replicate 1, z-score of dpERK with insulin":-3.97}
{"gene knocked down":"CG5327 (GeneID 37138)","amplicon":"DRSC06930","replicate 1, z-score of dpERK with insulin":0.15}
{"gene knocked down":"dmt (GeneID 41180)","amplicon":"DRSC16932","replicate 1, z-score of dpERK with insulin":-1.29}
{"gene knocked down":"blanks (GeneID 38620)","amplicon":"DRSC09757","replicate 1, z-score of dpERK with insulin":-1.41}
{"gene knocked down":"l(2)SH0834 (GeneID 34386)","amplicon":"DRSC02854","replicate 1, z-score of dpERK with insulin":-1.28}
{"gene knocked down":"brat (GeneID 35197)","amplicon":"DRSC03497","replicate 1, z-score of dpERK with insulin":-1.2}
{"gene knocked down":"Leash (GeneID 41320)","amplicon":"DRSC15617","replicate 1, z-score of dpERK with insulin":1}
{"gene knocked down":"nes (GeneID 40093)","amplicon":"DRSC11375","replicate 1, z-score of dpERK with insulin":0.3}
{"gene knocked down":"Poxn (GeneID 36741)","amplicon":"DRSC05589","replicate 1, z-score of dpERK with insulin":1.05}
{"gene knocked down":"Poxn (GeneID 36741)","amplicon":"DRSC07512","replicate 1, z-score of dpERK with insulin":0.75}
{"gene knocked down":"aub (GeneID 34524)","amplicon":"DRSC03486","replicate 1, z-score of dpERK with insulin":0.51}
{"gene knocked down":"Shawl (GeneID 5740840)","amplicon":"DRSC02209","replicate 1, z-score of dpERK with insulin":2.02}
{"gene knocked down":"Shawl (GeneID 5740840)","amplicon":"DRSC02748","replicate 1, z-score of dpERK with insulin":0.17}
{"gene knocked down":"CG12171 (GeneID 40690)","amplicon":"DRSC12200","replicate 1, z-score of dpERK with insulin":-0.02}
{"gene knocked down":"Ag5r2 (GeneID 44079)","amplicon":"DRSC19328","replicate 1, z-score of dpERK with insulin":-0.29}

Entries listed so far whose gene name begins with B or b:
{"gene knocked down":"blanks (GeneID 38620)","amplicon":"DRSC09757","replicate 1, z-score of dpERK with insulin":-1.41}
{"gene knocked down":"brat (GeneID 35197)","amplicon":"DRSC03497","replicate 1, z-score of dpERK with insulin":-1.2}

Additional records:
{"gene knocked down":"Kdm4A (GeneID 35744)","amplicon":"DRSC06586","replicate 1, z-score of dpERK with insulin":0.49}
{"gene knocked down":"Hs6st (GeneID 42380)","amplicon":"DRSC14348","replicate 1, z-score of dpERK with insulin":0.65}
{"gene knocked down":"Hs6st (GeneID 42380)","amplicon":"DRSC15182","replicate 1, z-score of dpERK with insulin":0.55}
{"gene knocked down":"Hs6st (GeneID 42380)","amplicon":"DRSC15581","replicate 1, z-score of dpERK with insulin":-0.58}
{"gene knocked down":"Hs6st (GeneID 42380)","amplicon":"DRSC21732","replicate 1, z-score of dpERK with insulin":-3.83}
{"gene knocked down":"Pex23 (GeneID 40229)","amplicon":"DRSC10323","replicate 1, z-score of dpERK with insulin":0.3}
{"gene knocked down":"Pex23 (GeneID 40229)","amplicon":"DRSC10645","replicate 1, z-score of dpERK with insulin":-0.14}
{"gene knocked down":"CG13566 (GeneID 37813)","amplicon":"DRSC04203","replicate 1, z-score of dpERK with insulin":-0.38}
{"gene knocked down":"CG42673 (GeneID 39111)","amplicon":"DRSC08989","replicate 1, z-score of dpERK with insulin":0.49}
{"gene knocked down":"CG42673 (GeneID 39111)","amplicon":"DRSC08991","replicate 1, z-score of dpERK with insulin":-3}
{"gene knocked down":"CG42673 (GeneID 39111)","amplicon":"DRSC10177","replicate 1, z-score of dpERK with insulin":1.93}
{"gene knocked down":"CG42673 (GeneID 39111)","amplicon":"DRSC10264","replicate 1, z-score of dpERK with insulin":-0.51}
{"gene knocked down":"CG42673 (GeneID 39111)","amplicon":"DRSC10353","replicate 1, z-score of dpERK with insulin":0.4}
{"gene knocked down":"CG42673 (GeneID 39111)","amplicon":"DRSC10354","replicate 1, z-score of dpERK with insulin":-0.23}
{"gene knocked down":"CG43336 (GeneID 12798414)","amplicon":"DRSC15765","replicate 1, z-score of dpERK with insulin":0.02}
{"gene knocked down":"CG12111 (GeneID 31796)","amplicon":"DRSC17808","replicate 1, z-score of dpERK with insulin":0.4}
{"gene knocked down":"Prat (GeneID 40935)","amplicon":"DRSC16797","replicate 1, z-score of dpERK with insulin":0.06}
{"gene knocked down":"ACXB (GeneID 53427)","amplicon":"DRSC00845","replicate 1, z-score of dpERK with insulin":-0.42}
